This is a selection; strong and weak results do not stand in their true shares. For part of these data: At the low end of the ranking the order means little. This is one part of the list. For part of these data: The source does not settle which construct or isoform was used.
Tests used:
Assay in all cases: DAPPL (digital affinity profiling via proximity ligation, sequencing)
Conditions in all cases: 10 mM Tris-HCl pH 7.5, 50 mM NaCl, 1 mM DTT, 4% glycerol, room temperature, 30 min; GST-TFs on glutathione beads, 16-mer random dsDNA library, 0.1% …; high values mean tight binding; double strand, one strand shown; scale: fold enrichment (6-mer frequency, TF over GST control)
GABPA = target: T1, GABPA (UniProt Q06546)
T1 sequence: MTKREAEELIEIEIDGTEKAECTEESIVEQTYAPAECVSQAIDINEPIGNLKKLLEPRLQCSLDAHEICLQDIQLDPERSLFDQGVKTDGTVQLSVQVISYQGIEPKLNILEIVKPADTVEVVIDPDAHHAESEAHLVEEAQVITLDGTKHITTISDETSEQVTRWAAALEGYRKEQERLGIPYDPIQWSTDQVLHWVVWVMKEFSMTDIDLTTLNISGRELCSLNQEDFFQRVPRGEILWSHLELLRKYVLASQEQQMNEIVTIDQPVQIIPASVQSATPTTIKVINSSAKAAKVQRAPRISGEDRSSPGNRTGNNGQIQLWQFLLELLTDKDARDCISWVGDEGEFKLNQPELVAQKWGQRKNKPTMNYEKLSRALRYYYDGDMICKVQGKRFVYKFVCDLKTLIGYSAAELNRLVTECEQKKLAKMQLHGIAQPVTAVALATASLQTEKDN

ETS1 = target: T2, ETS1 (UniProt P14921)
T2 sequence: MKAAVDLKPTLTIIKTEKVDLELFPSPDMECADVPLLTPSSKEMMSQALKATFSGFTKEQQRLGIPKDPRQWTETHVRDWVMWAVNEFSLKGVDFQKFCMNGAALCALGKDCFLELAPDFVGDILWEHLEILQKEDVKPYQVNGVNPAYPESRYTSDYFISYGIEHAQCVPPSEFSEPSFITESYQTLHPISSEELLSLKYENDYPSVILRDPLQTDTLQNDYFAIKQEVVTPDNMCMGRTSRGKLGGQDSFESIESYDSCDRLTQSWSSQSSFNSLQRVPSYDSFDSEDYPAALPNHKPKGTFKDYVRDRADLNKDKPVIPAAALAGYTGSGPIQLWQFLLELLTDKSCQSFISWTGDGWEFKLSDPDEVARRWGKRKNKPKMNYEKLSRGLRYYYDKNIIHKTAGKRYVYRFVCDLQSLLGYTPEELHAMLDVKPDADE

SPDEF = target: T3, SPDEF (UniProt O95238)
T3 sequence: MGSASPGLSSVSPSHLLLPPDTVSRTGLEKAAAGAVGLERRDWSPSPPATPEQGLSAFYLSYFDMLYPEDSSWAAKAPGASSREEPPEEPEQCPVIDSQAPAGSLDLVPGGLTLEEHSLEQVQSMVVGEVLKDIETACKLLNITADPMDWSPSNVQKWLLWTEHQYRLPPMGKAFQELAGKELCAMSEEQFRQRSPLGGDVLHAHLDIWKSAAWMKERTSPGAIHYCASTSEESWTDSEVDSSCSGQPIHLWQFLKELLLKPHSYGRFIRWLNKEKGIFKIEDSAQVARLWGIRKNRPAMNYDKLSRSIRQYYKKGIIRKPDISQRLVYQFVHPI

| Sequence | binding signal (GABPA) | binding signal (ETS1) | binding signal (SPDEF) |
| --- | --- | --- | --- |
| CGGGAC | 0.567 | 0.53 | 0.61 |
| CGCATG | 0.658 | 0.622 | 0.601 |
| GGTTGC | 0.801 | 0.881 | 0.867 |
| CCGTTG | 0.852 | 0.915 | 0.925 |
| GGAGCA | 0.492 | 0.447 | 0.474 |
| GGTGCT | 0.935 | 0.895 | 0.893 |
| AGACAT | 0.82 | 0.816 | 0.871 |
| TGCGAG | 0.936 | 0.912 | 0.879 |
| ACGTGA | 0.261 | 0.25 | 0.286 |
| AGAGTA | 0.767 | 0.767 | 0.702 |
| GAGAGA | 0.415 | 0.433 | 0.416 |
| GAGATC | 0.48 | 0.415 | 0.557 |
| TACAGT | 0.909 | 0.884 | 0.885 |
| TCGGTA | 0.599 | 0.569 | 0.562 |
| GAGGGA | 0.465 | 0.52 | 0.45 |
| CAAGGA | 0.712 | 0.713 | 0.781 |
| CTAGAG | 0.903 | 0.872 | 0.815 |
| GGGGCA | 0.69 | 0.692 | 0.693 |
| CGTGAT | 0.486 | 0.475 | 0.528 |
| CTAGTC | 0.774 | 0.826 | 0.741 |
| CGTAAG | 0.729 | 0.752 | 0.684 |

| Sequence | binding signal (GABPA) | binding signal (ETS1) | binding signal (SPDEF) |
| --- | --- | --- | --- |
| CAGCGG | 0.409 | 0.413 | 0.42 |
| CGAGGG | 0.708 | 0.682 | 0.603 |
| ACAGTG | 0.502 | 0.51 | 0.505 |
| AGTAAG | 0.741 | 0.747 | 0.707 |
| AGACAG | 0.547 | 0.499 | 0.492 |
| CAGCGT | 0.849 | 0.839 | 0.838 |
| CGTTAG | 0.877 | 0.843 | 0.861 |
| TAGACG | 0.796 | 0.727 | 0.764 |
| CCGAGG | 0.775 | 0.71 | 0.716 |
| GTCCGT | 0.527 | 0.483 | 0.616 |
| GTGCGA | 0.746 | 0.916 | 0.787 |
| AGGATC | 0.817 | 0.799 | 1.2 |
| GGGTAC | 0.848 | 0.968 | 0.963 |
| CTGGAG | 0.681 | 0.669 | 0.643 |
| GGCAGT | 0.563 | 0.524 | 0.491 |
| GGGATG | 0.935 | 0.926 | 0.993 |
| GCGAGC | 0.945 | 0.81 | 0.849 |
| AGTCGA | 0.432 | 0.336 | 0.396 |
| CAGTTG | 0.499 | 0.449 | 0.488 |
| CGTGCT | 0.872 | 0.808 | 0.805 |
| GAGACT | 0.357 | 0.422 | 0.37 |

Quoted from the listing.
For binding signal (SPDEF), TACAGT has 0.885
For binding signal (GABPA), CGAGGG has 0.708

The list goes on:

| Sequence | binding signal (GABPA) | binding signal (ETS1) | binding signal (SPDEF) |
| --- | --- | --- | --- |
| AAGCCA | 0.844 | 0.911 | 0.803 |
| TGTCGA | 0.831 | 0.835 | 0.93 |
| GAGCCT | 0.877 | 0.843 | 0.843 |
| GTCGTT | 0.684 | 0.708 | 0.678 |
| GTTAGA | 0.751 | 0.734 | 0.771 |
| GACCCG | 0.851 | 0.882 | 0.967 |
| TGGAGC | 0.597 | 0.601 | 0.569 |
| ACGGGT | 0.794 | 0.925 | 0.898 |
| GTAAGA | 0.785 | 0.847 | 0.75 |
| CACAGA | 0.845 | 0.857 | 0.898 |
| AGGGCG | 0.568 | 0.518 | 0.58 |
| GGACGC | 0.427 | 0.364 | 0.427 |
| GACTAA | 0.917 | 0.849 | 0.912 |
| ACCAGG | 0.726 | 0.71 | 0.818 |
| GGCCGA | 0.733 | 0.761 | 0.661 |
| TCGTGT | 0.778 | 0.782 | 0.855 |
| GGAGAA | 0.355 | 0.34 | 0.307 |
| CGGGAT | 0.605 | 0.64 | 0.877 |
| CGGGGG | 0.47 | 0.492 | 0.444 |
| AGACGT | 0.484 | 0.446 | 0.431 |
| GGTAGG | 0.651 | 0.633 | 0.641 |

25 entries from above, in CSV form:
Sequence,binding signal (GABPA),binding signal (ETS1),binding signal (SPDEF)
AGTCGA,0.432,0.336,0.396
CAGTTG,0.499,0.449,0.488
CGTGCT,0.872,0.808,0.805
GAGACT,0.357,0.422,0.37
AAGCCA,0.844,0.911,0.803
TGTCGA,0.831,0.835,0.93
GAGCCT,0.877,0.843,0.843
GTCGTT,0.684,0.708,0.678
GTTAGA,0.751,0.734,0.771
GACCCG,0.851,0.882,0.967
TGGAGC,0.597,0.601,0.569
ACGGGT,0.794,0.925,0.898
GTAAGA,0.785,0.847,0.75
CACAGA,0.845,0.857,0.898
AGGGCG,0.568,0.518,0.58
GGACGC,0.427,0.364,0.427
GACTAA,0.917,0.849,0.912
ACCAGG,0.726,0.71,0.818
GGCCGA,0.733,0.761,0.661
TCGTGT,0.778,0.782,0.855
GGAGAA,0.355,0.34,0.307
CGGGAT,0.605,0.64,0.877
CGGGGG,0.47,0.492,0.444
AGACGT,0.484,0.446,0.431
GGTAGG,0.651,0.633,0.641

Following part

| Sequence | binding signal (GABPA) | binding signal (ETS1) | binding signal (SPDEF) |
| --- | --- | --- | --- |
| AGCGCG | 0.831 | 0.895 | 0.691 |
| GCGCGA | 0.785 | 0.804 | 0.697 |
| GGTGAT | 0.771 | 0.819 | 0.819 |
| GAGGCG | 0.435 | 0.442 | 0.382 |
| GGTCAA | 0.961 | 0.962 | 0.932 |
| AGTAGA | 0.801 | 0.727 | 0.767 |
| TGTCGT | 0.764 | 0.893 | 0.967 |
| AGCACC | 0.964 | 0.865 | 0.905 |
| GGACAG | 0.585 | 0.548 | 0.613 |
| GACAGG | 0.543 | 0.541 | 0.576 |
| GACGTA | 0.743 | 0.722 | 0.756 |
| CGGGGC | 0.639 | 0.638 | 0.67 |
| CAGTAA | 0.745 | 0.688 | 0.762 |
| GGCAAG | 0.714 | 0.725 | 0.628 |
| CGAGGC | 0.682 | 0.696 | 0.657 |
| GCAGTG | 0.555 | 0.565 | 0.534 |
| CGTGTT | 0.774 | 0.852 | 0.913 |
| GAACGG | 0.627 | 0.564 | 0.619 |
| AGACAA | 0.813 | 0.808 | 0.716 |
| ACCAGC | 0.817 | 0.889 | 0.81 |
| TTCGGA | 0.721 | 0.707 | 0.736 |
